This note sets out measurements from article PMC8698322, “Autophagy Is Involved in the Viability of Overexpressing Thioredoxin o1 Tobacco BY-2 Cells under Oxidative Conditions” (Antioxidants, 2021).

The chains behind the UniProt entries cited, without tags or fusion partners. Residues count along the entry.
UniProt P02769, residues 25-607: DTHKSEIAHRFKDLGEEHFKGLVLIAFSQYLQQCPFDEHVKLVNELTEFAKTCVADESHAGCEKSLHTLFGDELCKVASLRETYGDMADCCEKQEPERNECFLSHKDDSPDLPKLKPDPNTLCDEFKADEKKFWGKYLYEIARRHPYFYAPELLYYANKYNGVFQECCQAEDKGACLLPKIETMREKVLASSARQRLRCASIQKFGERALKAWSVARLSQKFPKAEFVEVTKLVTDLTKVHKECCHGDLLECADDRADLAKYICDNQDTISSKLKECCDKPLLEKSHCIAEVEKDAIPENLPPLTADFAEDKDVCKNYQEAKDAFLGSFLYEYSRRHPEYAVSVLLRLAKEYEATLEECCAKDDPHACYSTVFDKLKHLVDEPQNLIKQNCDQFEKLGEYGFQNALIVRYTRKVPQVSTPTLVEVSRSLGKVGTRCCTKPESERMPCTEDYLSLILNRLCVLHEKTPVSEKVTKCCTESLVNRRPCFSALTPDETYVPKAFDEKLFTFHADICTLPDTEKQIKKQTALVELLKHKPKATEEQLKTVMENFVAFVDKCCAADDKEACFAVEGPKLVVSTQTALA

Results are given in words; binding and its absence hold for the method and conditions named. Sequences can lack the tags named with a protein.

Assay [1] concerns the target bovine serum albumin (bovine) (UniProt P02769). Briefly: far-Western, overlay or dot blot; PsTRXo1 (1.5 µg), HsATG4B (2.3 µg) and BSA (1.5 µg) spotted on membranes, blocked in TBST (25 mM Tris-HCl pH 7.5, 1% BSA, 0.1% Tween-20), overlaid with 0.2 µg PsTRXo1 or 0.1 µg HsATG4B in TBST for 2 h at room temperature; detected with anti-PsTRXo1 or anti-CrATG4B; both purified.

Assay [2] deals with recombinant human ATG4B, His-tagged (His-HsATG4B) (human) (UniProt Q9Y4P1). Briefly: SDS-PAGE (reductant-free sample buffer) and Western blot with anti-His; recombinant HsATG4B treated with 1 mM or 3 mM H2O2 followed by DTT, in TBSK buffer pH 8.0; both purified. Background: Immunoblotting shows a protein as a band on a membrane.

B1: recombinant human ATG4B, His-tagged (His-HsATG4B) (enzyme, UniProt Q9Y4P1 1-393, looked up)
chain: MDAATLTYDTLRFAEFEDFPETSEPVWILGRKYSIFTEKDEILSDVASRLWFTYRKNFPAIGGTGPTSDTGWGCMLRCGQMIFAQALVCRHLGRDWRWTQRKRQPDSYFSVLNAFIDRKDSYYSIHQIAQMGVGEGKSIGQWYGPNTVAQVLKKLAVFDTWSSLAVHIAMDNTVVMEEIRRLCRTSVPCAGATAFPADSDRHCNGFPAGAEVTNRPSPWRPLVLLIPLRLGLTDINEAYVETLKHCFMMPQSLGVIGGKPNSAHYFIGYVGEELIYLDPHTTQPAVEPTDGCFIPDESFHCQHPPCRMSIAELDPSIAVGFFCKTEDDFNDWCQQVKKLSLLGGALPMFELVELQPSHLACPDVLNLSLDSSDVERLERFFDSEDEDFEILSL
notes: human cysteine protease ATG4B, recombinant, bought; printed size with His tag 47 kDa; No catalogue number is printed; source: bought: Abcam
Take B1: the binding entry in assay [1] was “no binding (tested: 0.1 µg of recombinant HsATG4B overlaid)”; in assay [2], “no binding (condition: with DTT after the H2O2 treatment)”.
